The list shows a part of the results.

By UniProt entry, the sequences of proteins in these tests, tags left out.
UniProt Q0JBA9, entry or part of it: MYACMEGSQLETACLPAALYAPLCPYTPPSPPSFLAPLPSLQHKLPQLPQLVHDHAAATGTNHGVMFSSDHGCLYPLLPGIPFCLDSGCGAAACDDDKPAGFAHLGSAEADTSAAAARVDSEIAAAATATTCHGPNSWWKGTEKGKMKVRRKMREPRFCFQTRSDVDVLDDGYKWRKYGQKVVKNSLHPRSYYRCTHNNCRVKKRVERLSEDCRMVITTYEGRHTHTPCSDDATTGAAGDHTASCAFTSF

The target of this assay is OsWRKY34 (Oryza sativa, UniProt Q0JBA9 1-250). Briefly: protein-binding microarray (RPBM); PBS, 2% BSA, 51.3 ng/ul salmon testes DNA, 50 uM zinc acetate, 200 nM TF, 25 C, 1 h; high values mean tight binding. To be noted: protein: recombinant; tags: N-terminal polyhistidine and DsRed monomer fusion (pET32a); label: CyDye5-dUTP incorporated in the synthesized complementary strand; 3' TTTTT single-stranded linker to array surface; dsDNA, one strand shown. A digest of the protocol: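 In PBS with 2% BSA, salmon testes DNA and 50 µM zinc acetate, 200 nM protein was incubated on a custom Agilent array at 25 °C for 1 h and then washed off. The array had been made double-stranded by primer extension with Cy5-dUTP and blocked with 2% BSA. The proteins were transcription factors fused N-terminally to polyhistidine and DsRed, expressed in E. coli BL21-CodonPlus and purified on Ni–NTA. The binding signal is per-feature fluorescence intensity (arbitrary units) from an Axon 4000B scanner.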
In the case of “AGTCTTTGGTCGTCTCAGTGTCCGTCTCCTTCCTCATCTCCGGAGTCACCTAGTGCAG”, the binding signal was 10700 fluorescence intensity (a.u.).
For “AGCGTGGATATGTCTCACTATGATTATTTAGTACTACACACGGAGTCACCTAGTGCAG” the value was 8480 fluorescence intensity (a.u.); for “AGCCGTCACCTACCTTCCCAAGCCGAGCCGGAGGAGATATCGGAGTCACCTAGTGCAG”, 8040 fluorescence intensity (a.u.); for “ATCTCAACTTGTGCATTCAGATTTCACTTGTGCATCTCATCGGAGTCACCTAGTGCAG”, 8370 fluorescence intensity (a.u.).
The value for “GCACCGCCATTTGTTTATTGCCATCATTTATGATTTCGTACGGAGTCACCTAGTGCAG” was 10800 fluorescence intensity (a.u.); that for “AGGTAGTTTAACACACATCATGCTCGCTTAACTGCAGCAACGGAGTCACCTAGTGCAG” was 9280 fluorescence intensity (a.u.); that for “ACATATTCCATGAATGATTGATCTCTTTTGCATTTGTTCGCGGAGTCACCTAGTGCAG” was 8330 fluorescence intensity (a.u.).
The value for “GATATGATTACGTGTGTTATTCATTTTGTGTATTTTTTTACGGAGTCACCTAGTGCAG” was 11000 fluorescence intensity (a.u.); that for “AACCTAGCTTTCTGCTTTTCCGTCGTGCACGCTGCGGCCGCGGAGTCACCTAGTGCAG” was 9020 fluorescence intensity (a.u.); that for “ATATCCCGTGTACGCTTTCCACTGTGCAATTAGCAAATCTCGGAGTCACCTAGTGCAG” was 9160 fluorescence intensity (a.u.).
On to “TTCTTCCGTCCTTGTATTCCAACTTCCTCCTACTAACTACCGGAGTCACCTAGTGCAG”, for which the binding signal was 9640 fluorescence intensity (a.u.).
For “TACTTCATATGGCCTGTTTAGTTCCAAAGTTTTTTTTTTTCGGAGTCACCTAGTGCAG” the value was 8050 fluorescence intensity (a.u.); for “GCTTTGGTTAGTTTGATTCGATTGCAATATCTGCAATCCCCGGAGTCACCTAGTGCAG”, 9360 fluorescence intensity (a.u.).
The value for “CGTCTCTGACCAATCCAGACCTGCGTTTCTTTCTCTTTTCCGGAGTCACCTAGTGCAG” was 8480 fluorescence intensity (a.u.).
For “CTAGTATTTTTTTTTCTTTTCGGTACTCCACGCTCGTTCTCGGAGTCACCTAGTGCAG”, the binding signal was 9880 fluorescence intensity (a.u.).
For “GGAGTTTGTTCGTTTCTTTCCCGTTGTCCTATGCCCACTGCGGAGTCACCTAGTGCAG”, the binding signal was 13400 fluorescence intensity (a.u.).
For the sequence “CACCCTCGCGCCGTCCATACATCCACCGTCGTGTCGCCCACGGAGTCACCTAGTGCAG”, the binding signal is 13900 fluorescence intensity (a.u.).
The value for “CTATCTGTTAGCTTCTAATATCTATTTTCGCGAACTGCTACGGAGTCACCTAGTGCAG” was 9970 fluorescence intensity (a.u.); that for “ACTGCTCTGCATCATCTTCACCAACATGTCGACAACCAGCCGGAGTCACCTAGTGCAG” was 8840 fluorescence intensity (a.u.); that for “TAGTATTTACCAGCTCTTTTGGATATGACAATTGACCATTCGGAGTCACCTAGTGCAG” was 8320 fluorescence intensity (a.u.).
For “TCACTAAATTGCTTTCCTGTATGTGCACATCCAAATTTTTCGGAGTCACCTAGTGCAG” the value was 8410 fluorescence intensity (a.u.).
The value for “TATTTCGTGCTTCCCTGCCGCATCGCTCGCGCGCCAAAATCGGAGTCACCTAGTGCAG” was 8270 fluorescence intensity (a.u.); that for “TACTAGTTATTAAAGTGTCTTTCAGCCGTGACTTTTTTTACGGAGTCACCTAGTGCAG” was 9110 fluorescence intensity (a.u.).
In the case of “TCCTCTATGGCGCCGCTTACGTCCCGCCGCCCCGCTCCTGCGGAGTCACCTAGTGCAG”, the binding signal is 9630 fluorescence intensity (a.u.).
With “CGATCGGAGGAGGAGGCGGCGGGGAGGGAGGAGGAGGATGCGGAGTCACCTAGTGCAG”, the binding signal was 10800 fluorescence intensity (a.u.).
For “CCGCGCCGCCACGCGCTCGCATCGCATCCACCAGCGCCCACGGAGTCACCTAGTGCAG” the value was 8140 fluorescence intensity (a.u.); for “TTATGTTTTATAAACCTTACTCTCTTCGTTTCAGATTATACGGAGTCACCTAGTGCAG”, 8150 fluorescence intensity (a.u.); for “TTTCTCTCTCTCTCTCTCAGCCTCTCTCTCCCTCTCTCTTCGGAGTCACCTAGTGCAG”, 8540 fluorescence intensity (a.u.).
The value for “TTCCGCCCGTCCCAATCCAGCCACCCGCTCGCCCGTCCGTCGGAGTCACCTAGTGCAG” was 11700 fluorescence intensity (a.u.); that for “GTTAATATTACCTCGTTTTGCATTAAAACACTTAATTTTTCGGAGTCACCTAGTGCAG” was 9510 fluorescence intensity (a.u.); that for “TCGATCTGATCAGCCCGGCAAGCTTGTCCGTCCTCCATCACGGAGTCACCTAGTGCAG” was 8360 fluorescence intensity (a.u.).
In the case of “TGTGTGTGAGTGTATGTAGGGGTGGAAATGGTGTTTATGTCGGAGTCACCTAGTGCAG”, the binding signal is 8970 fluorescence intensity (a.u.).
The value for “GTTGAATCGTTATCCTTTCTACCGACGAAGTGACGTGAGTCGGAGTCACCTAGTGCAG” was 8350 fluorescence intensity (a.u.); that for “TTCCAGCCGCGCGTCCATGAGTTGATTTTTCGGGCTAAAACGGAGTCACCTAGTGCAG” was 8210 fluorescence intensity (a.u.).
The value for “TGAACCTTCATACGTGACTATGTCTAGCCGCAAATTCATACGGAGTCACCTAGTGCAG” was 8110 fluorescence intensity (a.u.); that for “ATATCTGGTTTTGCGGTTTGAGGATGTTTTCGTATCCCGACGGAGTCACCTAGTGCAG” was 12000 fluorescence intensity (a.u.).
The value for “TTTAAAACTAGGACCTGAGTAAATATTTTTCTTGAGTTTTCGGAGTCACCTAGTGCAG” was 8040 fluorescence intensity (a.u.).
Regarding “CACAGCGCCTCTGCTTCCGTTTCAGTCACTCCCCGATCCACGGAGTCACCTAGTGCAG”, the binding signal was 8740 fluorescence intensity (a.u.).
For “GACTCGAGAAGCCGTCGTCTTCCACCTCTAGTTTTTCTCTCGGAGTCACCTAGTGCAG” the value was 10500 fluorescence intensity (a.u.); for “CTCCGACTACCTCAACGCCGCCGTGCCGCTCGCCGACCTCCGGAGTCACCTAGTGCAG”, 8360 fluorescence intensity (a.u.).
For “AGTTTTTGTTTGCACTGTTTGATCACTCGTTTTATTAAAACGGAGTCACCTAGTGCAG” the value was 9390 fluorescence intensity (a.u.); for “GGCTGGTTTGGTTTGTGGCTAAAATTGGCCTTACCAATTTCGGAGTCACCTAGTGCAG”, 10500 fluorescence intensity (a.u.).

Source of the values: article PMC7819943, “Rice protein-binding microarrays: a tool to detect cis-acting elements near promoter regions in rice”.
